The list shows a part of the results.
Experiments:
Assay in all cases: NMR binding call after quantification (hit when 2 of 3 NMR criteria are met) (binary (1 = binding, 0 = not binding)); higher = binding
Conditions in all cases: RNA concentration 10 µM; fragment concentration 200 µM; 293 K
SARS-CoV-2 5_SL7 RNA = test system: SARS-CoV-2 5_SL7 RNA
SARS-CoV-2 5_SL8 RNA = test system: SARS-CoV-2 5_SL8 RNA
[1] = test system: SARS-CoV-2 attenuator hairpin (att HP) RNA
[2] = test system: SARS-CoV-2 frameshift pseudoknot (PK) RNA

Measured: NMR binding call

CN(C)c1ccc(CNn2cnnc2)cc1
0: all assays above

Nc1ccc(S(=O)(=O)Nc2ccccn2)cc1
0: all assays above

CNCc1ccc(C(F)(F)F)cc1
0: all assays above

CS(=O)(=O)NC1CCNCC1
0: all assays above

CCn1ccc(CNC)n1
0: all assays above

CC(O)CNC(=O)Nc1ccccc1 (centres undefined)
0: all assays above

NC(=O)c1cnc(C(F)(F)F)nc1
0: all assays above

NC(=O)c1ccc(OCc2ccccc2)cc1
0: all assays above

CC(=O)NC(C)c1nnc2ccccn12 (centres undefined)
0: all assays above

COc1ccc(NC(=O)CN)cc1
0: all assays above

COc1ccc(CC(=O)Nc2nncs2)cc1
0: all assays above

CCc1ccccc1NC(=O)c1snnc1C
0: all assays above

CC1CCN(Cc2c[nH]c3ccccc23)CC1
0: all assays above

CCOC(=O)c1cc(-c2ccc(C)cc2)no1
0: all assays above

CC(C)c1ccc(C(=O)Nc2nncs2)cc1
0: all assays above

CC(C)C(=O)N1CCN(C(C)C)CC1
0: all assays above

CCOc1ccc(NC(=O)NC(C)(C)C)cc1
0: all assays above

COC(=O)c1ccc(NC(=O)C2CCCC2)cc1
0: all assays above

CC1(C)CN(c2ncccc2F)CC1O (centres undefined)
0: all assays above

Oc1ccc(CNC2CCCCC2)cc1
0: all assays above

c1ccc(Nc2nncs2)cc1
0: all assays above

O=C(Nc1ccc(F)cc1F)Nn1cnnc1
0: all assays above

CC(=O)Nc1cccc(C(=O)O)c1C
0: all assays above

NC(=O)C(O)C1CCOCC1 (centres undefined)
0: all assays above

NC(=O)CN1CCN(C(=O)c2ccco2)CC1
0: all assays above

CN1CCCC(OC(=O)c2ccco2)C1 (centres undefined)
0: all assays above

CN(C)Cc1ccc(C#N)cc1
0: all assays above

CN(C)c1ccc(C(=O)Nc2ccncc2)cc1
1: SARS-CoV-2 5_SL7 RNA | SARS-CoV-2 5_SL8 RNA

Cc1nc(CN2CCC(CN)CC2)cs1
0: all assays above

OCc1cn(-c2ccc(Cl)c(Cl)c2)nn1
1: all assays above

N#CCCN1CCOCC1
0: all assays above

CC(=O)N1CCN(c2ccc(Cl)cc2)CC1
0: all assays above

CC(=O)N1CCCC(O)(C(=O)O)C1 (centres undefined)
0: all assays above

CC1CCNC(C(N)=O)C1 (centres undefined)
0: all assays above

Cc1ncc(CN2CCNCC2)s1
0: all assays above

NC(=O)c1cc(N2CCCC2)ccn1
1: SARS-CoV-2 5_SL7 RNA
0: all other assays above

Cc1n[nH]c(C)c1-c1ccccc1N
0: all assays above

CCOc1ccc(CC(=O)O)cc1
0: all assays above

Cl.NC1CCCN(C(=O)CCC(F)(F)F)C1 (centres undefined)
0: all assays above

CNS(=O)(=O)c1ccccc1Cl
0: all assays above

CC(C)Nc1ncccn1
0: all assays above

c1cc(NCC2CCCO2)ccn1 (centres undefined)
0: all assays above

CNC(=O)c1cccc(C(=O)O)n1
0: all assays above

Random excerpt: two records from the list.
CCOC(=O)c1cc(-c2ccc(C)cc2)no1
0: all assays above

CCOc1ccc(NC(=O)NC(C)(C)C)cc1
0: all assays above

More entries follow:

CC(C)NC(=O)CN1CCCNCC1
0: all assays above

Source: the supplement of paper PMC8426693
